Among the data in ChEMBL document CHEMBL1135942, “Synthesis of 5,6-dihydro-11H-benzo[5,6]-cyclohepta[1,2-b]pyridin-11-ylidene)-1-piperidine-N-cyanoguanidine derivatives as inhibitors of ras farnesyl protein transferase” (Bioorg Med Chem Lett, 2002) are IC50 values, retold here.

The test addresses Protein farnesyltransferase (Homo sapiens, UniProt P49354+P49356). The test can be described thus: FPT inhibitory activity was determined by the ability to inhibit the transfer of [3H]farnesyl from farnesyl pyrophosphate to H-ras-CLVS. Format: protein-complex assay.

The structures appear in SMILES notation.

For `Clc1ccc2c(c1)CCc1cccnc1C2=C1CCNCC1` [DESLORATADINE], the concentration for half-maximal inhibition (IC50) was greater than 65 µM.

The term IC50 denotes the midpoint of a concentration-inhibition curve. The low end stands for greater potency, the high end for weaker potency.
